# Assay results from PubChem BioAssay AID1347076 (National Center for Advancing Translational Sciences (NCATS), 2019).
# The campaign covered roughly 400,000 compounds. About 13,000 (3.2%) were called active. The inconclusive results got no clear call from the source; some entries with a clear call stand among them for comparison. Calls follow the shape of the dose curve; as a rule, active = well fitted cell-killing curve with a large enough effect; inconclusive = small, poorly fitted or top-dose-only effect, or effect the other way; inactive = flat fitted curve, though single readings scatter. A potency beside an inconclusive call is a rough fit, not a confirmed value.
# Assay: qHTS assay for MDR1-selective chemotherapeutics: Primary screen using the drug-selected MDR subline cells KB-V1; also: nearly all actives have a fitted effect of over 60% in size
# Conditions: KB-V1 MDR cells viability, CellTiter-Glo, 72 h; series mostly up to 46.1 µM
# Summary of the method: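 Drug-selected KB-V1 cells, grown in DMEM lacking phenol red with 10% FBS, receive compound titrations; after three days at 37 degrees C, surviving cell ATP is quantified by CellTiter-Glo luminescence and responses normalized and curve-fitted.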
# Potency is read from the fitted curve at half-maximal effect.
row,Structure (SMILES),Potency
1,C=CCN(CC=C)CCOc1cccc(Oc2ccccc2)c1,inactive
2,Cc1cc(N2CCN(C(c3ccnc4ccccc34)c3nnnn3-c3c(C)cccc3C)CC2)c2ccccc2n1 (stereo not given),"inconclusive: 7.31 µM [cytotoxic, partial curve, poor fit]"
3,CC1(C(=O)Nc2ccc(Cl)cc2)Cc2c(-c3cccc(C(F)(F)F)c3)ccnc2O1 (stereo not given),"inconclusive: 29.1 µM [cytotoxic, single point]"
4,Brc1ccc(CSc2nnc(Cc3c[nH]c4ccccc34)o2)cc1,active: 18.4 µM
5,CC(=O)NC12CC3CC(C1)CC(C(=O)Nc1nc4ccc(F)cc4s1)(C3)C2,inactive
6,CCN(CC)c1ccc(/C=N\N2CCN(Cc3ccc(C)cc3)CC2)cc1,"inconclusive: 23.1 µM [cytotoxic, single point]"
7,COC(=O)c1ccc(CSc2nnc(Nc3cccc(OC)c3)s2)o1,"inconclusive: 18.4 µM [cytotoxic, partial curve, poor fit]"
8,Cc1ccc2nc(C(C)(C)C)c(Cc3ccccc3C(F)(F)F)n2c1,inactive
9,Nc1ncc(Br)cc1S(=O)(=O)NCCC(=O)Nc1cccc(Cl)c1,"inconclusive: 18.4 µM [cytotoxic, single point]"
10,CC1Cc2ccccc2N1C(=O)Cn1nnc(-c2ccccc2NC(=O)C2CCC2)n1 (stereo not given),inactive
11,C=CCNc1nc2cc(-c3cccc(Cl)c3)sc2c(=O)n1C,"inconclusive: 18.4 µM [cytotoxic, single point]"
12,O=C(Nc1cccn2ncnc12)c1cccc(C(F)(F)F)c1,inactive
13,CCOc1ccccc1-c1c2cc(O)c(=O)cc-2oc2cc(O)c(O)cc12,inactive
14,COC(=O)c1cc2c(ccn2-c2ccc(F)cc2)n1CC(=O)C(C)(C)C,inactive
15,O=C(OCc1ccccc1)c1ccc(NCc2cc(O)ccc2O)cc1,active: 2.59 µM
16,CN(Cc1ccc(OC(F)F)cc1)C(=O)c1cccc(S(=O)(=O)N2CCN(Cc3ccccc3)CC2)c1,"inconclusive: 4.11 µM [cytotoxic, partial curve, poor fit]"
17,CCn1c(SCC(=O)NC(=O)NC(C)(C)C)nc2ccccc21,"inconclusive: 29.1 µM [cytotoxic, single point]"
18,CCN1CCN(CC(=O)Nc2cc(C)on2)CC1,"inconclusive: 29.1 µM [rising, single point]"
19,O=C(/C=C/c1ccc(Cl)cc1)Nc1cc(S(=O)(=O)N2CCOCC2)ccc1N1CCOCC1,"inconclusive: 29.1 µM [cytotoxic, partial curve, poor fit]"
20,COc1ccc(C(=O)Nc2ccc(NC(=O)c3ccco3)c(Cl)c2)cc1OC,"inconclusive: 7.31 µM [cytotoxic, partial curve, poor fit]"

# Random excerpt: 2 compounds from above
row,Structure (SMILES),Potency
16,CN(Cc1ccc(OC(F)F)cc1)C(=O)c1cccc(S(=O)(=O)N2CCN(Cc3ccccc3)CC2)c1,"inconclusive: 4.11 µM [cytotoxic, partial curve, poor fit]"
5,CC(=O)NC12CC3CC(C1)CC(C(=O)Nc1nc4ccc(F)cc4s1)(C3)C2,inactive
